Results deposited as PubChem BioAssay AID1259308 (NCATS, 2017).

- Screen: 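Knock-downs that increase output of a recombinant reporter protein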 (primary screen)
- Cell system: human HEK293 embryonic kidney cells stably expressing firefly luciferase (HEK-CMV-Luc2-Hygro)
- Reagents: single siRNA against human genes, 0.8 pmol siRNA per well
- Duration: 72 h
- Detection: 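Reporter luminescence and viable-cell signal on separate replicate plates, given as percent of non-targeting control and median/MAD z-scores, plus per-cell luciferase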
- Reading the numbers: total luciferase, z-score and total luciferase, % of control: higher = more reporter protein produced; luciferase per cell, z-score: higher = more reporter output per viable cell; viable cells, % of control: higher = more viable cells
- Hit rule: 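An siRNA counts as active if its total luciferase robust z-score exceeds 3; genes with two or more such siRNAs out of three were retested with fresh siRNAs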
- Calls: active = raised luciferase; inactive = no rise
Here is an unselected part of about 59,000 reagents. About 1,510 of them (2.6%) were called active. 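Calls use total luciferase alone and ignore viability, so some active siRNAs may act by altering cell number.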 Entries without a mark were called inactive. The numbers tell different reagents against one gene apart.

no.	gene	siRNA no.	total luciferase, z-score	total luciferase, % of control	luciferase per cell, z-score	viable cells, % of control
1	TTC38	1	-1.52	51.6	-1.27	80.6
2	TTC38	2	0.401	89.9	-0.327	109
3	TTC38	3	1.13	104	1.73	73.8
4	BFSP2	1	2.87	139	2.57	78.9
5	BFSP2	2	-1.36	54.9	-0.313	66.6
6	BFSP2	3	2.35	129	2.57	73
7	MIR503HG	1	2.81	138	1.92	92.7
8	MIR503HG	2	2.56	133	2.54	76
9	MIR503HG	3	-0.73	67.4	-1.05	99.2

2 of these entries, set out differently.
{"gene":"BFSP2","siRNA no.":2,"total luciferase, z-score":-1.36,"total luciferase, % of control":54.9,"luciferase per cell, z-score":-0.313,"viable cells, % of control":66.6}
{"gene":"BFSP2","siRNA no.":3,"total luciferase, z-score":2.35,"total luciferase, % of control":129,"luciferase per cell, z-score":2.57,"viable cells, % of control":73}

The listing continues:
no.	gene	siRNA no.	total luciferase, z-score	total luciferase, % of control	luciferase per cell, z-score	viable cells, % of control
10	GOLIM4	1	-0.484	72.3	-0.494	92
11	GOLIM4	2	-0.0878	80.1	-0.398	99.4
12	GOLIM4	3	0.598	93.8	0.753	85.9
13	AXDND1	1	-1.32	55.7	-1.33	88.2
14	AXDND1	2	-1.08	60.4	-0.67	80.5
15	AXDND1	3	-0.14	79.1	-0.933	113
16	TM7SF2	1	-0.615	69.7	-1.03	102
17	TM7SF2	2	1.43	110	0.913	96.9
18	TM7SF2	3	-0.0291	81.3	-0.941	116
19	STAG3	1	0.595	93.7	0.294	96.9
20	STAG3	2	0.218	86.2	-0.164	101
21	STAG3	3	0.532	92.5	-0.0698	105
22	LARP1BP3	1	2.78	137	2.97	70.3
23	LARP1BP3	2	2.75	137	2.14	86.9
24	LARP1BP3	3	-1.38	54.5	-1.3	85.7
